The text below walks through data of PubChem BioAssay (EPA / NIEHS).

Sequences of proteins named here, by UniProt entry; tags and fusion partners are left off.
UniProt P04637, whole entry, looked up: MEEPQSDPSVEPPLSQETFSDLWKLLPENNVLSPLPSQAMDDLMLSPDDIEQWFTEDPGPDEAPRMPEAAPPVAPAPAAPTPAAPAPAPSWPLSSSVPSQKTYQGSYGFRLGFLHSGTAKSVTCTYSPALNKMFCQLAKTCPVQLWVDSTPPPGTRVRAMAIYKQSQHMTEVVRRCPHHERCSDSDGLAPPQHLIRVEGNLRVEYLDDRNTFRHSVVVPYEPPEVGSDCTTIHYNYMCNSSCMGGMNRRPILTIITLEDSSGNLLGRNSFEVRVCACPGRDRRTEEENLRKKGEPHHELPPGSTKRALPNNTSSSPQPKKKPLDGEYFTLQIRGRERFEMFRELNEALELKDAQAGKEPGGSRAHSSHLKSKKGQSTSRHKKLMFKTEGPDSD

Molecules are shown by their SMILES. For part of these data: This list holds what a sample rich in hits left over. Results filed as inconclusive are left out. Only a part is listed here, and it is no random draw. Calls of active or inactive are those of the source. Rule for the calls: active = hit-call score of the fitted dose curve at least 0.9, where 1 is the maximum; inconclusive = response in the unintended direction; inactive = score below 0.9.

The first assay deals with Cellular tumor antigen p53 (Homo sapiens) (UniProt P04637). In words: TOX21_p53_BLA_p4_ratio: Tox21 HCT-116 p53 Agonism Beta-lactamase Assay, Ratio, Phase 4 (AID 2283601). The procedure, abridged:
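HCT-116 p53 beta-lactamase reporter cells (4000/well) preincubated 5 h, then compound (217-fold dilution of DMSO stock) for 16 h at 37C. CCF4-AM substrate added 2 h at room temperature; 460/530 nm emission ratio fitted upward versus DMSO.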
For `CN(C)CCc1c[nH]c2cccc(OP(=O)(O)O)c12`, the result was inactive.

Regarding `CN1C[C@H](CNC(=O)OCc2ccccc2)C[C@@H]2c3cccc4c3c(cn4C)C[C@H]21`, the outcome was inactive.

As for `O=[N+]([O-])c1ccc(Cl)cc1`, the result was inactive.

Turning to `C=CCC1([C@@H](C)CCC)C(=O)NC(=O)NC1=O`, the outcome was inactive.

As to `CCCCCCC(=O)CCCCCC/C=C/C[C@@H](O)[C@H](O)[C@@](N)(CO)C(=O)O`, the outcome was inactive.

Tested on in another assay: not listed separately
In words: ACEA_AR_agonist_AUC_viability: ACEA Biosciences xCELLigence Real-Time Cell Analysis on Androgen Receptor Agonism for Viability (AID 2283775). The procedure, abridged: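 22Rv1 cells; impedance growth kinetics; 8-pt 1:4 dilutions from 100 uM top final, ≤0.5% DMSO; n = 2; 80 h read; AUC viability, loss-of-signal vs DMSO.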
Turning to `CCOC(=O)NC(=S)Nc1ccccc1NC(=S)NC(=O)OCC`, the compound was called inactive.

For `CCOP(=O)(OCC)Oc1ccc([N+](=O)[O-])cc1`, the compound was called inactive.

As for `CCCCC(CC)COC(=O)c1c(Br)c(Br)c(Br)c(Br)c1C(=O)OCC(CC)CCCC` (centres undefined), the result was inactive.

`CCC1CCC(=O)O1` (centres undefined): the compound was called inactive.

Regarding `Cc1ccc(OP(=O)(Oc2ccc(C)cc2)Oc2ccc(C)cc2)cc1` (tested in a mixture with another compound), the call was inactive.

For `O=C(CBr)c1ccc(O)cc1`, the outcome was inactive.

For the compound `C[C@]12CC[C@H](O)CC1=CC[C@@H]1[C@@H]2CC[C@]2(C)C(=O)CC[C@@H]12`, the compound was classed as inactive.

Turning to `COC(N)=O`, the compound was called inactive.

`CNC(=O)O/N=C/C(C)(C)S(C)=O` (centres undefined): the result was inactive.

Turning to `c1ccc2c(c1)sc1ccccc12`, the outcome was inactive.

As for `C1CCC(NC2CCCCC2)CC1`, the compound was classed as inactive.

Regarding `Oc1ccc(Cl)cc1`, the outcome was inactive.

As for `O=C(NC(=O)c1c(F)cccc1F)Nc1ccc(Cl)cc1`, the call was inactive.

For the compound `Cc1cc(Cl)ccc1O`, the compound was classed as inactive.

Tested on in another assay: not listed separately
Nature of the assay: ACEA_AR_antagonist_AUC_viability: ACEA Biosciences xCELLigence Real-Time Cell Analysis on Androgen Receptor Antagonism for Viability (AID 2283776).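 Note: area under impedance growth curve at 80 h after dosing as viability; hits lower the growth signal relative to DMSO meaning cytotoxicity.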 The procedure, abridged:
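22Rv1 human prostate cancer cells were seeded on electrode plates, monitored overnight, then exposed to eight 1:4 dilutions from 100 uM final. Impedance-based growth kinetics at 80 h gave an AUC viability endpoint normalized to DMSO.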
For `CCOP(=O)(OCC)Oc1ccc([N+](=O)[O-])cc1`, the compound was called inactive.

Consider `Cc1ccc(OP(=O)(Oc2ccc(C)cc2)Oc2ccc(C)cc2)cc1` (tested in a mixture with another compound), for which the outcome was inactive.

For the compound `O=[N+]([O-])c1ccc(Cl)cc1`, the outcome was inactive.

For `C[C@]12CC[C@H](O)CC1=CC[C@@H]1[C@@H]2CC[C@]2(C)C(=O)CC[C@@H]12`, the result was inactive.

For `c1ccc2c(c1)sc1ccccc12`, the result was inactive.
